Survivor count and T/C data for four compounds are collected here from PubChem BioAssay AID250 (DTP/NCI, 2004).

The subject of test [1] is BDF1 mice, L1210 leukemia sc, survival T/C. Put plainly: NCI In Vivo Anticancer Drug Screen. Data for tumor model L1210 Leukemia (subcutaneous) in B6D2F1 (BDF1) mice. The settings on record: T/C endpoint: median survival time, higher T/C = longer survival. The procedure, abridged:
(§1)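 Transplantable tumor-bearing mice; survival or tumor size recorded; result = T/C, treated vs vehicle control.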

The subject of test [2] is BDF1 mice, L1210 leukemia sc. The description is as above. The settings on record: T/C endpoint: median survival time, higher T/C = longer survival. The procedure, abridged: as §1
[3] abbreviates: dose: 62.5 mg/kg/injection, schedule: Q01DX009 (sc), vehicle: water, evaluated on day 7.
[4] abbreviates: dose: 180.0 mg/kg/injection, schedule: Q01DX Z (sc), vehicle: methylcellulose (MC).
[5] abbreviates: dose: 250.0 mg/kg/injection, schedule: Q01DX009 (sc), vehicle: water, evaluated on day 7.
Setting [6] is: dose: 500.0 mg/kg/injection, schedule: Q01DX009 (sc), vehicle: water, evaluated on day 7.
Where [7] appears, read: dose: 1000.0 mg/kg/injection, schedule: Q01DX009 (sc), vehicle: water, evaluated on day 7.
[8] abbreviates: dose: 23.0 mg/kg/injection, schedule: Q01DX Z (sc), vehicle: saline.

The list is a part of this screen's results and no random one: it gathers tests that were run many times, whatever their T/C, doses with no T/C, and many T/C values between a quarter and a half above the control. Other doses and runs of a compound stand elsewhere. T/C gives the treated animals as a percentage of the vehicle group. Some entries give survivors of the animals treated and no T/C: the source files T/C as zero there, which appears to mark a toxic dose or a test without result, not a measured value. Some doses without a T/C left all or most animals alive at the check, yet need not have been tolerated: survival well below the control is almost never listed, so the zero probably covers shortened survival too. For some of these results: Survivors were counted at the toxicity check, usually on the fifth day, unless a day is given; later deaths do not show. Schedule codes are those of the source, taken here to give the interval after Q, in days (D) or hours (H), and the number of doses after X. Some schedules carry Z or #; the key to these is not given. For survival time, this PubChem deposit counts one and a half times the control or more as active, and values a quarter to a half above the control carry no call in these data; other NCI protocols may use other cut-offs. Some entries were tested several times; the results are listed from low to high. Brackets with × say how often a value occurs here. Some T/C values are followed by the survivors on the day toxicity was checked, most often the fifth; without a count, all were alive then.

On to `S=P(N1CC1)(N1CC1)N1CC1`, for which the survivor count in test [1] (dose: 12.0 mg/kg/injection, schedule: Q01DX009 (ip), vehicle: water) was 8 of 10; in test [1] (dose: 24.0 mg/kg/injection, schedule: Q01DX009 (ip), vehicle: water) it was 6 of 10; in test [1] (dose: 24.0 mg/kg/injection, schedule: Q01DX009 (sc), vehicle: water), 6 of 10. Moreover, the T/C in test [2] (dose: 3.0 mg/kg/injection, schedule: Q01DX009 (ip), vehicle: water) was 127 % of control [9 of 10 alive]; in test [2] (dose: 3.0 mg/kg/injection, schedule: Q01DX009 (sc), vehicle: water) it was 145 % of control; in test [2] (dose: 3.0 mg/kg/injection, schedule: Q01DX Z (sc), vehicle: saline) it was 145 % of control; in test [2] (dose: 5.0 mg/kg/injection, schedule: Q01DX Z (sc), vehicle: saline), 140 % of control; in test [2] (dose: 8.4 mg/kg/injection, schedule: Q01DX Z (sc), vehicle: saline), 144 % of control; in test [2] (dose: 14.0 mg/kg/injection, schedule: Q01DX Z (sc), vehicle: saline), 135 % of control.

Take `C[C@]12C=CC(=O)C=C1CC[C@@H]1[C@@H]2C(=O)C[C@@]2(C)[C@H]1CC[C@]2(O)C(=O)CO`: the survivor count in test [1] (dose: 23.0 mg/kg/injection, schedule: Q01DX Z (sc), vehicle: methylcellulose (MC)) is 3 of 10; in test [1] (dose: 39.0 mg/kg/injection, schedule: Q01DX Z (sc), vehicle: methylcellulose (MC)), 3 of 10; in test [1] (dose: 65.0 mg/kg/injection, schedule: Q01DX Z (sc), vehicle: methylcellulose (MC)), 4 of 10; in test [1] (dose: 108.0 mg/kg/injection, schedule: Q01DX Z (sc), vehicle: methylcellulose (MC)), 5 of 10; in test [1] (setting [4]) it was 5 of 10. The T/C in test [1] (setting [3]) was 106 % of control; in test [1] (dose: 62.5 mg/kg/injection, schedule: Q01DX009 (sc), vehicle: water, evaluated on day 18) it was 105 % of control; in test [1] (dose: 125.0 mg/kg/injection, schedule: Q01DX009 (sc), vehicle: water, evaluated on day 19), 150 % of control; in test [1] (dose: 125.0 mg/kg/injection, schedule: Q01DX009 (sc), vehicle: water, evaluated on day 24), 150 % of control; in test [1] (setting [5]), 161 % of control; in test [1] (dose: 250.0 mg/kg/injection, schedule: Q01DX009 (sc), vehicle: water, evaluated on day 24), 166 % of control. The T/C is 153 % of control in test [1] (setting [6]); 155 % of control in test [1] (dose: 500.0 mg/kg/injection, schedule: Q01DX009 (sc), vehicle: water, evaluated on day 24); 150 and 153 % of control in test [1] (setting [7]); 150 % of control in test [1] (dose: 1000.0 mg/kg/injection, schedule: Q01DX009 (sc), vehicle: water, evaluated on day 18); 150 % of control in test [1] (dose: 1000.0 mg/kg/injection, schedule: Q01DX009 (sc), vehicle: water, evaluated on day 24); 137 % of control in test [2] (setting [3]). Further, the T/C in test [2] (dose: 62.5 mg/kg/injection, schedule: Q01DX009 (sc), vehicle: water, evaluated on day 24) was 133 % of control; in test [2] (dose: 108.0 mg/kg/injection, schedule: Q01DX009 (sc), vehicle: water) it was 127 and 138 % of control; in test [2] (dose: 125.0 mg/kg/injection, schedule: Q01DX009 (sc), vehicle: water, evaluated on day 7) it was 136 and 147 % of control (2×); in test [2] (dose: 125.0 mg/kg/injection, schedule: Q01DX009 (sc), vehicle: water, evaluated on day 18) it was 133 % of control; in test [2] (dose: 180.0 mg/kg/injection, schedule: Q01DX009 (sc), vehicle: water), 138 % of control; in test [2] (setting [4]), 130 % of control [7 of 10 alive]. Besides, the T/C in test [2] (dose: 233.0 mg/kg/injection, schedule: Q02DX Z (sc), vehicle: water) was 138 % of control; in test [2] (setting [5]) it was 134 and 144 % of control; in test [2] (dose: 250.0 mg/kg/injection, schedule: Q01DX009 (sc), vehicle: water, evaluated on day 18) it was 144 % of control; in test [2] (dose: 250.0 mg/kg/injection, schedule: Q01DX009 (sc), vehicle: water, evaluated on day 19) it was 137 % of control; in test [2] (dose: 300.0 mg/kg/injection, schedule: Q01DX009 (sc), vehicle: water) it was 133 and 144 % of control; in test [2] (dose: 300.0 mg/kg/injection, schedule: Q01DX Z (sc), vehicle: methylcellulose (MC)), 130 % of control [7 of 10 alive]. Further, the T/C is 134 and 136 % of control in test [2] (setting [6]); 133 (2×) and 144 % of control in test [2] (dose: 500.0 mg/kg/injection, schedule: Q01DX009 (sc), vehicle: water, evaluated on day 18); 137 % of control in test [2] (dose: 500.0 mg/kg/injection, schedule: Q01DX009 (sc), vehicle: water, evaluated on day 19); 130 % of control [7 of 10 alive] in test [2] (dose: 500.0 mg/kg/injection, schedule: Q01DX Z (sc), vehicle: methylcellulose (MC)); 144 % of control [9 of 10 alive] in test [2] (dose: 648.0 mg/kg/injection, schedule: Q02DX Z (sc), vehicle: water); 127 and 133 % of control in test [2] (dose: 833.0 mg/kg/injection, schedule: Q01DX009 (sc), vehicle: water). Moreover, the T/C is 140 % of control in test [2] (setting [7]); 143 % of control in test [2] (dose: 1000.0 mg/kg/injection, schedule: Q01DX009 (sc), vehicle: water, evaluated on day 19); 133 and 144 % of control in test [2] (dose: 1388.0 mg/kg/injection, schedule: Q01DX009 (sc), vehicle: water); 128, 133, 144 % of control in test [2] (dose: 2000.0 mg/kg/injection, schedule: Q01DX009 (sc), vehicle: water, evaluated on day 7); 133 % of control in test [2] (dose: 2000.0 mg/kg/injection, schedule: Q01DX009 (sc), vehicle: water, evaluated on day 18); 131 % of control in test [2] (dose: 2000.0 mg/kg/injection, schedule: Q01DX009 (sc), vehicle: water, evaluated on day 19). In test [2] (dose: 2000.0 mg/kg/injection, schedule: Q01DX009 (sc), vehicle: water, evaluated on day 24), the T/C was 144 % of control.

In the case of `S=P(N1CCOCC1)(N1CC1)N1CC1`, the survivor count in test [1] (setting [8]) is listed as 5 of 8. The T/C is 132 and 145 % of control in test [2] (setting [8]); 148 % of control in test [2] (dose: 39.0 mg/kg/injection, schedule: Q01DX Z (sc), vehicle: saline); 130 % of control in test [2] (dose: 39.0 mg/kg/injection, schedule: Q## X Z (sc), vehicle: saline); 128 and 145 % of control in test [2] (dose: 65.0 mg/kg/injection, schedule: Q01DX Z (sc), vehicle: saline); 130 % of control [7 of 8 alive] in test [2] (dose: 108.0 mg/kg/injection, schedule: Q01DX001 (sc), vehicle: saline); 130 % of control in test [2] (dose: 108.0 mg/kg/injection, schedule: Q01DX Z (sc), vehicle: saline). The T/C was 125 % of control in test [2] (dose: 108.0 mg/kg/injection, schedule: Q## X Z (sc), vehicle: saline); 130 % of control in test [2] (dose: 180.0 mg/kg/injection, schedule: Q01DX001 (sc), vehicle: saline); 130 % of control in test [2] (dose: 180.0 mg/kg/injection, schedule: Q01DX Z (sc), vehicle: saline); 125 % of control in test [2] (dose: 180.0 mg/kg/injection, schedule: Q## X Z (sc), vehicle: saline); 130 % of control [7 of 8 alive] in test [2] (dose: 300.0 mg/kg/injection, schedule: Q01DX001 (sc), vehicle: saline); 130 % of control in test [2] (dose: 300.0 mg/kg/injection, schedule: Q## X Z (sc), vehicle: saline).

Consider `CN(N=O)C(=O)N[C@@H](C=O)[C@@H](O)[C@H](O)[C@H](O)CO`, for which the survivor count in test [1] (dose: 200.0 mg/kg/injection, schedule: Q01DX009 (sc), vehicle: other) is 1 of 10. For the same compound, the T/C was 131 % of control [9 of 10 alive] in test [2] (dose: 50.0 mg/kg/injection, schedule: Q01DX009 (sc), vehicle: other) and 128 % of control in test [2] (dose: 100.0 mg/kg/injection, schedule: Q01DX009 (sc), vehicle: other).
